Source: patent US8309097
No constants are given. Whether binding was seen depends on the method and setting. Some binding calls cover weakened binding; strength is not graded here.

Sequences of proteins named here, by UniProt entry; tags and fusion partners are left off. A change or cut given only in a name is not applied to a line headed by its entry. Residues count along the entry.
UniProt P13688: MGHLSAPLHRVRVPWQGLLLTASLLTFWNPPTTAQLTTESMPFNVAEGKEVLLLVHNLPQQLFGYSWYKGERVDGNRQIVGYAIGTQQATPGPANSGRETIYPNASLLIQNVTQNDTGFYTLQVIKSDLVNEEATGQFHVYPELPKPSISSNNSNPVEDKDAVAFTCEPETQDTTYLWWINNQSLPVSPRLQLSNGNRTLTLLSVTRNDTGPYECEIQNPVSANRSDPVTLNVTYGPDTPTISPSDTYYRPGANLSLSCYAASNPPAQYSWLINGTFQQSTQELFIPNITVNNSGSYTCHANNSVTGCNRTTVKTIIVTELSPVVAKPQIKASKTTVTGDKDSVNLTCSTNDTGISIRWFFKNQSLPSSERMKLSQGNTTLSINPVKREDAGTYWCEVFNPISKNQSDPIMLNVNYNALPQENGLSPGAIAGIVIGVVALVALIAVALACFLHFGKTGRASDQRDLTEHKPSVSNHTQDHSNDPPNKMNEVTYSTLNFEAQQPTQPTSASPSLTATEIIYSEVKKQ
CEACAM1 (CD66a), native, from PMN: residues 35-526 of P13688
CD66a-Fc: residues 35-428 of P13688
UniProt Q9NNX6: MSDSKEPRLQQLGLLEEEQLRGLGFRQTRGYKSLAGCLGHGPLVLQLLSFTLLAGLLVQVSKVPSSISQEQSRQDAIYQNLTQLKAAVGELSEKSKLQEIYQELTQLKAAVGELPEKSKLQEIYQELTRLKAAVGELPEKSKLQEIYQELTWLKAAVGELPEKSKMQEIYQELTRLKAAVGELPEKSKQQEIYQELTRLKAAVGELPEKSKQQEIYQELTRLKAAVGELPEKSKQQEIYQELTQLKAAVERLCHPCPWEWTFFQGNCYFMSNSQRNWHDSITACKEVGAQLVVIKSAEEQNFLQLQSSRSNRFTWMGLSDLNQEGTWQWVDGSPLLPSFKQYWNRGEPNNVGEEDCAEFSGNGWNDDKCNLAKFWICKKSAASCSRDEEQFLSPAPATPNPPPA

What was measured:
[1] = target: CEACAM1 (CD66a), native, from PMN (UniProt P13688); assay: beads coated with PMN CEACAM1, FACS
[2] = target: CD66a-Fc (UniProt P13688); assay: beads coated with CD66a-Fc, immature DC and K562-DC-SIGN
[3] = target: CD66a-Fc (UniProt P13688); assay: beads coated with CD66a-Fc on immature DC and K562-DC-SIGN
[4] = target: CEACAM1 (CD66a), native, from PMN (UniProt P13688); assay: summary of the results of FIGS. 54, 55 and 59

Measured: binding

DC-SIGN (CD209), wild type, expressed on K562 transfectants or immature dendritic cells (from UniProt Q9NNX6 1-404) (receptor)
binds: all assays above
